Measured values taken from ChEMBL document CHEMBL3217691, “Discovery and optimization of efficacious neutral 4-amino-6-biphenyl-7,8-dihydropyrimido[5,4-f][1,4]oxazepin-5-one diacylglycerol acyl transferase-1 (DGAT1) inhibitors” (Medchemcomm, 2013).

Test: physchem
Details: buffer, pH 7.4

Compound | logD
Nc1ncnc2c1C(=O)N(c1ccc(-c3ccc(Cn4cccnc4=O)cc3Cl)cc1)CCO2 | 0.9
CN(Cc1ccc(-c2ccc(N3CCOc4ncnc(N)c4C3=O)cc2)c(Cl)c1)S(C)(=O)=O | 2.1
